# Experimental data from the supplement of paper PMC11438910.
# Some of the results follow. The signal is at background level for most entries.
# B1: 3S41.1 (protein)
# chain 1: EVQLVESGGGLVQPGGSLRLSCATSGFTFRNYWMYWFRQAPGKGLDWVSSISDSSSNTFYSDSVKGRFTISRDNAKNTLYLQMNSLRAEDTAVYYCARRPIAAATGVYWYFDLWGPGTPITVSS
# chain 2: EIVMTQSPATLSLSPGERATLSCRASQNIGSNLAWYQQKPGRAPKLLIYDASSRATGIPDRFSASGSGTDFTLTISSLEPEDVGVYYCQQYNNWKIFGPGTKLEIK
# Columns and labels:
# Assay in all cases: fluorescence intensity of antibody binding to polysaccharide-coupled beads; higher = stronger binding
# [1] = molecular target: pneumococcal polysaccharide Pn24A; details: antibody concentration 2337.65 ng/mL
# [2] = molecular target: pneumococcal polysaccharide Pn24B
# [3] = molecular target: pneumococcal polysaccharide Pn24F
# [4] = molecular target: pneumococcal polysaccharide Pn25A
# [5] = molecular target: pneumococcal polysaccharide Pn25F
# [6] = molecular target: pneumococcal polysaccharide Pn27
# [7] = molecular target: pneumococcal polysaccharide Pn28A
# [8] = molecular target: pneumococcal polysaccharide Pn28F
# [9] = molecular target: pneumococcal polysaccharide Pn29
# [10] = molecular target: pneumococcal polysaccharide Pn3
# [11] = molecular target: pneumococcal polysaccharide Pn31
# [12] = molecular target: pneumococcal polysaccharide Pn32A
# [13] = molecular target: pneumococcal polysaccharide Pn32F
# [14] = molecular target: pneumococcal polysaccharide Pn33A
# [15] = molecular target: pneumococcal polysaccharide Pn33B
# [16] = molecular target: pneumococcal polysaccharide Pn33C
# [17] = molecular target: pneumococcal polysaccharide Pn33D
# [18] = molecular target: pneumococcal polysaccharide Pn33F
# [19] = molecular target: pneumococcal polysaccharide Pn34
# [20] = molecular target: pneumococcal polysaccharide Pn35A
# [21] = molecular target: pneumococcal polysaccharide Pn35B
# [22] = molecular target: pneumococcal polysaccharide Pn35C
# [23] = molecular target: pneumococcal polysaccharide Pn35F
# [24] = molecular target: pneumococcal polysaccharide Pn36
# [25] = molecular target: pneumococcal polysaccharide Pn37
# [26] = molecular target: pneumococcal polysaccharide Pn38
# [27] = molecular target: pneumococcal polysaccharide Pn39
# [28] = antibody concentration 0.1 ng/mL
# [29] = antibody concentration 0.534724 ng/mL
# [30] = antibody concentration 2.8593 ng/mL
# [31] = antibody concentration 15.2894 ng/mL
# [32] = antibody concentration 81.7561 ng/mL
# [33] = antibody concentration 437.17 ng/mL
# [34] = antibody concentration 2337.65 ng/mL
binder,measurement,setting,value
B1,fluorescence intensity,[1],18 MFI
same,fluorescence intensity,[2]; [28],18 MFI
same,fluorescence intensity,[2]; [29],17.5 MFI
same,fluorescence intensity,[2]; [30],17 MFI
same,fluorescence intensity,[2]; [31],19 MFI
same,fluorescence intensity,[2]; [32],17 MFI
same,fluorescence intensity,[2]; [33],19.2 MFI
same,fluorescence intensity,[2]; [34],22.5 MFI
same,fluorescence intensity,[3]; [28],18.5 MFI
same,fluorescence intensity,[3]; [29],18 MFI
same,fluorescence intensity,[3]; [30],15.2 MFI
same,fluorescence intensity,[3]; [31],15.2 MFI
same,fluorescence intensity,[3]; [32],18 MFI
same,fluorescence intensity,[3]; [33],18.2 MFI
same,fluorescence intensity,[3]; [34],22 MFI
same,fluorescence intensity,[4]; [28],26 MFI
same,fluorescence intensity,[4]; [29],25.5 MFI
same,fluorescence intensity,[4]; [30],23.2 MFI
same,fluorescence intensity,[4]; [31],25.5 MFI
same,fluorescence intensity,[4]; [32],24.5 MFI
same,fluorescence intensity,[4]; [33],25.8 MFI
same,fluorescence intensity,[4]; [34],29 MFI
same,fluorescence intensity,[5]; [28],31.8 MFI
same,fluorescence intensity,[5]; [29],31.5 MFI
same,fluorescence intensity,[5]; [30],32.5 MFI
same,fluorescence intensity,[5]; [31],31.5 MFI
same,fluorescence intensity,[5]; [32],29.5 MFI
same,fluorescence intensity,[5]; [33],29 MFI
same,fluorescence intensity,[5]; [34],33.8 MFI
same,fluorescence intensity,[6]; [28],17.2 MFI
same,fluorescence intensity,[6]; [29],17.5 MFI
same,fluorescence intensity,[6]; [30],16.5 MFI
same,fluorescence intensity,[6]; [31],17.5 MFI
same,fluorescence intensity,[6]; [32],17 MFI
same,fluorescence intensity,[6]; [33],18.5 MFI
same,fluorescence intensity,[6]; [34],27.5 MFI
same,fluorescence intensity,[7]; [28],27 MFI
same,fluorescence intensity,[7]; [29],27 MFI
same,fluorescence intensity,[7]; [30],27.2 MFI
same,fluorescence intensity,[7]; [31],26 MFI
same,fluorescence intensity,[7]; [32],28 MFI
same,fluorescence intensity,[7]; [33],25.8 MFI
same,fluorescence intensity,[7]; [34],29.5 MFI
same,fluorescence intensity,[8]; [28],28.8 MFI
same,fluorescence intensity,[8]; [29],30 MFI
same,fluorescence intensity,[8]; [30],30 MFI
same,fluorescence intensity,[8]; [31],28.2 MFI
same,fluorescence intensity,[8]; [32],28.5 MFI
same,fluorescence intensity,[8]; [33],29.5 MFI
same,fluorescence intensity,[8]; [34],32.5 MFI
same,fluorescence intensity,[9]; [28],15 MFI
same,fluorescence intensity,[9]; [29],17 MFI
same,fluorescence intensity,[9]; [30],16.8 MFI
same,fluorescence intensity,[9]; [31],16 MFI
same,fluorescence intensity,[9]; [32],17.5 MFI
same,fluorescence intensity,[9]; [33],17 MFI
same,fluorescence intensity,[9]; [34],21.5 MFI
same,fluorescence intensity,[10]; [28],14 MFI
same,fluorescence intensity,[10]; [29],13.8 MFI
same,fluorescence intensity,[10]; [30],14.8 MFI
same,fluorescence intensity,[10]; [31],15.5 MFI
same,fluorescence intensity,[10]; [32],14.2 MFI
same,fluorescence intensity,[10]; [33],15 MFI
same,fluorescence intensity,[10]; [34],27.5 MFI
same,fluorescence intensity,[11]; [28],15.5 MFI
same,fluorescence intensity,[11]; [29],15.5 MFI
same,fluorescence intensity,[11]; [30],13.8 MFI
same,fluorescence intensity,[11]; [31],14 MFI
same,fluorescence intensity,[11]; [32],14.5 MFI
same,fluorescence intensity,[11]; [33],14.5 MFI
same,fluorescence intensity,[11]; [34],18.5 MFI
same,fluorescence intensity,[12]; [28],18 MFI
same,fluorescence intensity,[12]; [29],17.5 MFI
same,fluorescence intensity,[12]; [30],18 MFI
same,fluorescence intensity,[12]; [31],18.5 MFI
same,fluorescence intensity,[12]; [32],16.5 MFI
same,fluorescence intensity,[12]; [33],18.8 MFI
same,fluorescence intensity,[12]; [34],20.5 MFI
same,fluorescence intensity,[13]; [28],29.8 MFI
same,fluorescence intensity,[13]; [29],29.2 MFI
same,fluorescence intensity,[13]; [30],29.5 MFI
same,fluorescence intensity,[13]; [31],27.5 MFI
same,fluorescence intensity,[13]; [32],28.5 MFI
same,fluorescence intensity,[13]; [33],28.5 MFI
same,fluorescence intensity,[13]; [34],33.5 MFI
same,fluorescence intensity,[14]; [28],17.8 MFI
same,fluorescence intensity,[14]; [29],18 MFI
same,fluorescence intensity,[14]; [30],18 MFI
same,fluorescence intensity,[14]; [31],16.5 MFI
same,fluorescence intensity,[14]; [32],17 MFI
same,fluorescence intensity,[14]; [33],20.5 MFI
same,fluorescence intensity,[14]; [34],33 MFI
same,fluorescence intensity,[15]; [28],17.5 MFI
same,fluorescence intensity,[15]; [29],18.5 MFI
same,fluorescence intensity,[15]; [30],18.5 MFI
same,fluorescence intensity,[15]; [31],17 MFI
same,fluorescence intensity,[15]; [32],18.5 MFI
same,fluorescence intensity,[15]; [33],17 MFI
same,fluorescence intensity,[15]; [34],19 MFI
same,fluorescence intensity,[16]; [28],20 MFI
same,fluorescence intensity,[16]; [29],20.8 MFI
same,fluorescence intensity,[16]; [30],20 MFI
same,fluorescence intensity,[16]; [31],20 MFI
same,fluorescence intensity,[16]; [32],20 MFI
same,fluorescence intensity,[16]; [33],18 MFI
same,fluorescence intensity,[16]; [34],21 MFI
same,fluorescence intensity,[17]; [28],17.5 MFI
same,fluorescence intensity,[17]; [29],16.5 MFI
same,fluorescence intensity,[17]; [30],15 MFI
same,fluorescence intensity,[17]; [31],17 MFI
same,fluorescence intensity,[17]; [32],17.2 MFI
same,fluorescence intensity,[17]; [33],16.2 MFI
same,fluorescence intensity,[17]; [34],17 MFI
same,fluorescence intensity,[18]; [28],13.5 MFI
same,fluorescence intensity,[18]; [29],14 MFI
same,fluorescence intensity,[18]; [30],12.2 MFI
same,fluorescence intensity,[18]; [31],14 MFI
same,fluorescence intensity,[18]; [32],13 MFI
same,fluorescence intensity,[18]; [33],15.8 MFI
same,fluorescence intensity,[18]; [34],21.2 MFI
same,fluorescence intensity,[19]; [28],14.5 MFI
same,fluorescence intensity,[19]; [29],14 MFI
same,fluorescence intensity,[19]; [30],14 MFI
same,fluorescence intensity,[19]; [31],16.8 MFI
same,fluorescence intensity,[19]; [32],14.5 MFI
same,fluorescence intensity,[19]; [33],13.5 MFI
same,fluorescence intensity,[19]; [34],16 MFI
same,fluorescence intensity,[20]; [28],17 MFI
same,fluorescence intensity,[20]; [29],16 MFI
same,fluorescence intensity,[20]; [30],16.8 MFI
same,fluorescence intensity,[20]; [31],15 MFI
same,fluorescence intensity,[20]; [32],16.5 MFI
same,fluorescence intensity,[20]; [33],17.5 MFI
same,fluorescence intensity,[20]; [34],19 MFI
same,fluorescence intensity,[21]; [28],18.2 MFI
same,fluorescence intensity,[21]; [29],18 MFI
same,fluorescence intensity,[21]; [30],16 MFI
same,fluorescence intensity,[21]; [31],17.5 MFI
same,fluorescence intensity,[21]; [32],18.8 MFI
same,fluorescence intensity,[21]; [33],17.2 MFI
same,fluorescence intensity,[21]; [34],21 MFI
same,fluorescence intensity,[22]; [28],20.5 MFI
same,fluorescence intensity,[22]; [29],20 MFI
same,fluorescence intensity,[22]; [30],20 MFI
same,fluorescence intensity,[22]; [31],19 MFI
same,fluorescence intensity,[22]; [32],19.5 MFI
same,fluorescence intensity,[22]; [33],21 MFI
same,fluorescence intensity,[22]; [34],21 MFI
same,fluorescence intensity,[23]; [28],21.5 MFI
same,fluorescence intensity,[23]; [29],20.2 MFI
same,fluorescence intensity,[23]; [30],16.5 MFI
same,fluorescence intensity,[23]; [31],23.5 MFI
same,fluorescence intensity,[23]; [32],18 MFI
same,fluorescence intensity,[23]; [33],21.5 MFI
same,fluorescence intensity,[23]; [34],19.8 MFI
same,fluorescence intensity,[24]; [28],17 MFI
same,fluorescence intensity,[24]; [29],15.5 MFI
same,fluorescence intensity,[24]; [30],15.5 MFI
same,fluorescence intensity,[24]; [31],17 MFI
same,fluorescence intensity,[24]; [32],16.5 MFI
same,fluorescence intensity,[24]; [33],17 MFI
same,fluorescence intensity,[24]; [34],20 MFI
same,fluorescence intensity,[25]; [28],24.8 MFI
same,fluorescence intensity,[25]; [29],25 MFI
same,fluorescence intensity,[25]; [30],25 MFI
same,fluorescence intensity,[25]; [31],28 MFI
same,fluorescence intensity,[25]; [32],25.5 MFI
same,fluorescence intensity,[25]; [33],27.2 MFI
same,fluorescence intensity,[25]; [34],43.8 MFI
same,fluorescence intensity,[26]; [28],26.2 MFI
same,fluorescence intensity,[26]; [29],25.5 MFI
same,fluorescence intensity,[26]; [30],25.5 MFI
same,fluorescence intensity,[26]; [31],25 MFI
same,fluorescence intensity,[26]; [32],26.5 MFI
same,fluorescence intensity,[26]; [33],26.5 MFI
same,fluorescence intensity,[26]; [34],29 MFI
same,fluorescence intensity,[27]; [28],19.5 MFI
same,fluorescence intensity,[27]; [29],17.5 MFI
same,fluorescence intensity,[27]; [30],18.8 MFI
same,fluorescence intensity,[27]; [31],18 MFI

# Quoted from above (seven entries):
binder,measurement,setting,value
B1,fluorescence intensity,[5]; [32],29.5 MFI
same,fluorescence intensity,[5]; [33],29 MFI
same,fluorescence intensity,[5]; [34],33.8 MFI
same,fluorescence intensity,[6]; [28],17.2 MFI
same,fluorescence intensity,[6]; [29],17.5 MFI
same,fluorescence intensity,[6]; [30],16.5 MFI
same,fluorescence intensity,[6]; [31],17.5 MFI

# Given bar-delimited: entries from further up.
binder | measurement | setting | value
B1 | fluorescence intensity | [10]; [29] | 13.8 MFI
same | fluorescence intensity | [10]; [30] | 14.8 MFI

# Reprinted at random: three records from the list, in no set order.
binder,measurement,setting,value
B1,fluorescence intensity,[20]; [28],17 MFI
same,fluorescence intensity,[14]; [33],20.5 MFI
same,fluorescence intensity,[5]; [30],32.5 MFI
